Experimental data published in PMC6692315.
Results are given in words; binding and its absence hold for the method and conditions named. In cells and extracts the contact can be indirect. Some binding calls cover weakened binding; strength is not graded here.

Amino acid sequences for entries named in this document (tags omitted).
UniProt Q8TEB1: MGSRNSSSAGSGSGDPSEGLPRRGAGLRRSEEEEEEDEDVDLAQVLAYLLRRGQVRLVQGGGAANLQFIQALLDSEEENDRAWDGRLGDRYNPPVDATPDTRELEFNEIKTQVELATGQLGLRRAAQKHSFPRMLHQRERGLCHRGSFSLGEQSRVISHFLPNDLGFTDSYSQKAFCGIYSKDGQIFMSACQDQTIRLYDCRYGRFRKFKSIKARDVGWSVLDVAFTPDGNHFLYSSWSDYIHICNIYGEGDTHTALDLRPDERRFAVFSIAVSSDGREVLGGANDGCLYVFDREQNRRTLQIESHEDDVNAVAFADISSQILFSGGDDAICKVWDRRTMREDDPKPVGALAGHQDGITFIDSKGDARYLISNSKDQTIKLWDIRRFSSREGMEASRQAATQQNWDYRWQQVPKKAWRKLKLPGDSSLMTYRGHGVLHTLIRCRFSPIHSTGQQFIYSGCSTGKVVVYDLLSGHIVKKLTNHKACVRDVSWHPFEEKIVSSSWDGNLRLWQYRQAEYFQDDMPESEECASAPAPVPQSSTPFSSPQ
UniProt Q13619: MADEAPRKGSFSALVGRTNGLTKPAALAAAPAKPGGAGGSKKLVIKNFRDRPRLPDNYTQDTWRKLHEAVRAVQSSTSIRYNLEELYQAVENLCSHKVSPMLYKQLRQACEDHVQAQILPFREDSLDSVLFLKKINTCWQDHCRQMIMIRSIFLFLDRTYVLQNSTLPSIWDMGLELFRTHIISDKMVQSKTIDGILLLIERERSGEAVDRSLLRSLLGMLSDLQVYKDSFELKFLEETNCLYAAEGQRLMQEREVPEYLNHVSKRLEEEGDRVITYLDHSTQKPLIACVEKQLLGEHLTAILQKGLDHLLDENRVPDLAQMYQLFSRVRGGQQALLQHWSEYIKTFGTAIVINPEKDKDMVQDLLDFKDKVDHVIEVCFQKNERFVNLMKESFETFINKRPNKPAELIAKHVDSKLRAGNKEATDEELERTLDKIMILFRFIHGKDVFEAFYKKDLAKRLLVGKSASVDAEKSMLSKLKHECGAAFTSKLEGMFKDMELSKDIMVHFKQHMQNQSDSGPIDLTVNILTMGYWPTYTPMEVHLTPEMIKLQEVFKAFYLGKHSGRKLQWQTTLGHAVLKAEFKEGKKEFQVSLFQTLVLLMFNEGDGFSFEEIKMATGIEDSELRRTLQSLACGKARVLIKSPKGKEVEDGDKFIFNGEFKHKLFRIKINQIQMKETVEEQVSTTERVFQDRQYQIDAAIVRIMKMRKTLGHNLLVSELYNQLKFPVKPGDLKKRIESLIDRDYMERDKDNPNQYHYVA
UniProt Q16531: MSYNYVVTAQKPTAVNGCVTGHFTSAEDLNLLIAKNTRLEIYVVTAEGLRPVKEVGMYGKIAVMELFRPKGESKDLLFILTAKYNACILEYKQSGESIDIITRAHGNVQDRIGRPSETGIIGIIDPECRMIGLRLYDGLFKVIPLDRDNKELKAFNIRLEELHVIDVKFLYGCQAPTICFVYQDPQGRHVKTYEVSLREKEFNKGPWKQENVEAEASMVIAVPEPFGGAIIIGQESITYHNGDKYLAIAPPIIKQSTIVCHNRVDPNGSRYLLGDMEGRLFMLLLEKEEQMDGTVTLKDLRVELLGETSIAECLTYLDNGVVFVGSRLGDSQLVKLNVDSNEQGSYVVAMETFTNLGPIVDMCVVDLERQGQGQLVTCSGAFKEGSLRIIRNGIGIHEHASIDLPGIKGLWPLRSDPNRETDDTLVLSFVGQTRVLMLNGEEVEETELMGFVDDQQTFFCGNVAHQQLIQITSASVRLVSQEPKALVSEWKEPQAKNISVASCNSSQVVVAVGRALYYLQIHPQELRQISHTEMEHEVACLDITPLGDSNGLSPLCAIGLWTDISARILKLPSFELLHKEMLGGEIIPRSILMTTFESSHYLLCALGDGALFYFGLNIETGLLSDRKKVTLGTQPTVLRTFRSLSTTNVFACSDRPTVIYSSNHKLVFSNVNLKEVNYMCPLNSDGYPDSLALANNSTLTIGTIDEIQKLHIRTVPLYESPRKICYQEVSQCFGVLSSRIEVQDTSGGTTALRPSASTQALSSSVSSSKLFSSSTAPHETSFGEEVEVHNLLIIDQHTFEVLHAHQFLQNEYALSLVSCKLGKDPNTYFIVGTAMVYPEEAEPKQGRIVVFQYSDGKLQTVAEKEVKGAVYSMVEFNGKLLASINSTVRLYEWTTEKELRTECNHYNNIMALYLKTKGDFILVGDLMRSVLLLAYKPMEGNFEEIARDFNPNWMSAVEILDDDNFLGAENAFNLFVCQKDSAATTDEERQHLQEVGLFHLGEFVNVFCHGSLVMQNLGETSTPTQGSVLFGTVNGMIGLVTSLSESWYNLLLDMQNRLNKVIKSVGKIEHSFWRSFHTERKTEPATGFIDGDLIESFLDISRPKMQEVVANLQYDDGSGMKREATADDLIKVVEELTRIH

Target: GFP-WDR23 isoform I (human) (human) (UniProt Q8TEB1)
Test: co-IP; GFP-tagged protein immunoprecipitated with GFP trap magnetic agarose beads (Chromotek) from transfected HEK-293T lysate; 0.5% CHAPS buffer (10 mM Tris/Cl pH 7.5, 150 mM NaCl, 0.5 mM EDTA); Western blot

Substance | binding
CUL4A (from UniProt Q13619 1-759) | binds
DDB1 (from UniProt Q16531 1-1140) | binds
